Reference: publication PMC8113518, “JRAB/MICAL-L2 undergoes liquid–liquid phase separation to form tubular recycling endosomes” (Communications Biology, 2021)
Like-named read-outs stand apart in the source and are kept apart here. Results are given in words; binding and its absence hold for the method and conditions named. Binding seen in cells or lysates may run through a third protein. Some results given as binding are weak or reduced against the parent protein; the word gives no strength. For part of these data: Sequences can lack the tags named with a protein. Blank lines part the entries; values can stand above or below the molecule they belong to.

The chains behind the UniProt entries cited, without tags or fusion partners. Where a name states a change or a piece, a line headed by the entry shows the natural chain unless it says otherwise. A line that says so, or that is headed by a name, gives the form on record, which may keep a tag or linker. Residues count along the entry.
UniProt P55258: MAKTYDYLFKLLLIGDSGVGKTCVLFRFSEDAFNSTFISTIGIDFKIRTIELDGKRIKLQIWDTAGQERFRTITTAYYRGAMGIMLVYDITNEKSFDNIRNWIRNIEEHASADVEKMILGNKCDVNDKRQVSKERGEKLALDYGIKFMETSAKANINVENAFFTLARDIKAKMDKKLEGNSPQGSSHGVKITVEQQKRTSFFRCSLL
GFP-Rab8ADA (P55258, form named): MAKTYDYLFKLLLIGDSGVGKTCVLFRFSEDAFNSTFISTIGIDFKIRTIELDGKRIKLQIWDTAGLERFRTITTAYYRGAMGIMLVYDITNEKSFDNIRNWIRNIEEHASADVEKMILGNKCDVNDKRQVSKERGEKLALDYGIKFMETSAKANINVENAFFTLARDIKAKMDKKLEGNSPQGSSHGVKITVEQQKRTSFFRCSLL
GFP-Rab8ADAΔC3 (aa 1-190) (P55258, form named): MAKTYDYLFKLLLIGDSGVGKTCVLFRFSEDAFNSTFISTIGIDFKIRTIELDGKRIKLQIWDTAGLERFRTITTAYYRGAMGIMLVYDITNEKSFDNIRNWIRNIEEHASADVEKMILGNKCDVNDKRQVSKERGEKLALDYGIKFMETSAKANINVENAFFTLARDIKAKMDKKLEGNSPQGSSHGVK
UniProt Q3TN34: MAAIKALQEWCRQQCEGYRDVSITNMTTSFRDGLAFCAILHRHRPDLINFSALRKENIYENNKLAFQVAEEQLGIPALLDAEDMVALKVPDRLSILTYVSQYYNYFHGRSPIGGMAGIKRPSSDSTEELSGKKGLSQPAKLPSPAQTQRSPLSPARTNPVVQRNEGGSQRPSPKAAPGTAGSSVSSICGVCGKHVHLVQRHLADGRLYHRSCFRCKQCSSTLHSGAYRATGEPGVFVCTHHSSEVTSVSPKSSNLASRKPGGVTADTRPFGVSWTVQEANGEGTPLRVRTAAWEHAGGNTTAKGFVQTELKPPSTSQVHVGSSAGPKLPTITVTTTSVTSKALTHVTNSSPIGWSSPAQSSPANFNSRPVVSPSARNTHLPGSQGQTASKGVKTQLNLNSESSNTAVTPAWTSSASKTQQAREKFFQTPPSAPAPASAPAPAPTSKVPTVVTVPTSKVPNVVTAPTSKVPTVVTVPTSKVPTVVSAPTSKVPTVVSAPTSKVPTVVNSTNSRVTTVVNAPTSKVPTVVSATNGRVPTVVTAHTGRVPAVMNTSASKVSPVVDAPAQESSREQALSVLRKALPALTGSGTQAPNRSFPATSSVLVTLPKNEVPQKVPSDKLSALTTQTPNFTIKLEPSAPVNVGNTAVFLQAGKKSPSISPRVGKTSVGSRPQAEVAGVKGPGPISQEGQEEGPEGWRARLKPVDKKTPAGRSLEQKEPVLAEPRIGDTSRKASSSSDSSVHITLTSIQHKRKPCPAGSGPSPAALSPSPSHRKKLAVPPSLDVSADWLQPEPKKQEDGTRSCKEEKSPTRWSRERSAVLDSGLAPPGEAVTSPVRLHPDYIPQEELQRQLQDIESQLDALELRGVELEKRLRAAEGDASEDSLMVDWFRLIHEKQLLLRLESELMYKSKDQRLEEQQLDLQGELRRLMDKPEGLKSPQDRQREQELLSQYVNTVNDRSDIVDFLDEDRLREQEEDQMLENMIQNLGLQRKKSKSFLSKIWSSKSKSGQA
GFP-JRAB-C (aa 806-1009): residues 806-1009 of Q3TN34
GST-JRAB-CC4 (aa 840-930): residues 840-930 of Q3TN34

Experiments:
[1] = molecular target: HA-Rab8A dominant-active (DA) mutant (Q67L) (mouse) (UniProt P55258); test: co-IP; HEK293 lysates; anti-HA antibody (12CA5) on Protein G beads; buffer A, 90 min, 4 °C; western blot
GST-JRAB-C (mouse) [2] = molecular target: GST-JRAB-C (mouse) (UniProt Q3TN34); test: pull-down; purified GST-JRAB-C on glutathione-Sepharose beads; HEK293 lysates with GFP-tagged Rab8ADA, Rab13DA, truncation or chimeric variants; buffer A, 90 min, 4 °C; western blot with anti-GFP; only the target purified
[3] = molecular target: GST-JRAB-CC4 (aa 840-930) (mouse) (UniProt Q3TN34); test: pull-down; purified GST-JRAB-CC4 (aa 840-930) on glutathione-Sepharose beads; HEK293 lysates with Myc-JRAB and HA-Rab13DA, HA-Rab8ADA or HA; buffer A, 90 min, 4 °C; western blot with anti-Myc; only the target purified
GST-JRAB-C (mouse) [4] = molecular target: GST-JRAB-C (mouse) (UniProt Q3TN34); test: pull-down; purified GST-JRAB-C on glutathione-Sepharose beads; HEK293 lysates with GFP-tagged Rab8ADA, Rab13DA, truncation or chimeric variants; buffer A, 90 min, 4 °C; western blot with anti-GFP; only the target purified; remark: listed apart in the source
[5] = molecular target: GFP-JRAB-C (aa 806-1009) (mouse) (UniProt Q3TN34); test: pull-down; purified GST-JRAB-CH+LIM on glutathione-Sepharose beads; lysates of HEK293 cells co-expressing GFP-JRAB-C with an HA-tagged Rab (Rab13DA, Rab8ADA, Rab13DA-C8A, Rab8ADA-C13) or HA; buffer A (10 mM Tris-HCl pH 8.0, 1 mM EDTA, 1% NP-40, 150 mM NaCl, 5 mM MgCl2), 90 min, 4 °C; western blot with anti-GFP; only the target purified

Molecule: GFP-JRAB/MICAL-L2 (full length) (from UniProt Q3TN34 1-1009)
binding [1]: binds

Molecule: Myc-JRAB/MICAL-L2 (full length) (from UniProt Q3TN34 1-1009)
binding [3]: binds

B1: GFP-Rab13DA (protein, UniProt Q9DD03 1-202)
chain: MAKAYDHLFKLLLIGDSGVGKTCLIIRFAEDNFNSTYISTIGIDFKIRTVDIEGKRIKLQVWDTAGLERFKTITTAYYRGAMGIILVYDITDEKSFENIQNWMKSIKENASAGVERLLLGNKCDMEAKRQVQREQAEKLAREHRIRFFETSAKSSVNVDEAFSSLARDILLKTGGRRSGTNSKPSSTGLKTSDKKKNKCLLG
binding (GST-JRAB-C (mouse) [4]): binds

Other lines, results leading:

binding (GST-JRAB-C (mouse) [2]): binds
Molecule: GFP-Rab8ADAΔC3 (aa 1-190) (from UniProt P55258 1-190) (domain or fragment)

binding (GST-JRAB-C (mouse) [2]): binds
Molecule: GFP-Rab8ADA (from UniProt P55258 1-207)

binding [5]: binds
B2: HA-Rab13DA (Q67L) (protein, UniProt Q9DD03 1-202)
chain: MAKAYDHLFKLLLIGDSGVGKTCLIIRFAEDNFNSTYISTIGIDFKIRTVDIEGKRIKLQVWDTAGLERFKTITTAYYRGAMGIILVYDITDEKSFENIQNWMKSIKENASAGVERLLLGNKCDMEAKRQVQREQAEKLAREHRIRFFETSAKSSVNVDEAFSSLARDILLKTGGRRSGTNSKPSSTGLKTSDKKKNKCLLG
